# Results of single-concentration screens

Protein sequences, listed by entry. Tags and fused reporters are not part of them.
UniProt I6X8D2, whole entry: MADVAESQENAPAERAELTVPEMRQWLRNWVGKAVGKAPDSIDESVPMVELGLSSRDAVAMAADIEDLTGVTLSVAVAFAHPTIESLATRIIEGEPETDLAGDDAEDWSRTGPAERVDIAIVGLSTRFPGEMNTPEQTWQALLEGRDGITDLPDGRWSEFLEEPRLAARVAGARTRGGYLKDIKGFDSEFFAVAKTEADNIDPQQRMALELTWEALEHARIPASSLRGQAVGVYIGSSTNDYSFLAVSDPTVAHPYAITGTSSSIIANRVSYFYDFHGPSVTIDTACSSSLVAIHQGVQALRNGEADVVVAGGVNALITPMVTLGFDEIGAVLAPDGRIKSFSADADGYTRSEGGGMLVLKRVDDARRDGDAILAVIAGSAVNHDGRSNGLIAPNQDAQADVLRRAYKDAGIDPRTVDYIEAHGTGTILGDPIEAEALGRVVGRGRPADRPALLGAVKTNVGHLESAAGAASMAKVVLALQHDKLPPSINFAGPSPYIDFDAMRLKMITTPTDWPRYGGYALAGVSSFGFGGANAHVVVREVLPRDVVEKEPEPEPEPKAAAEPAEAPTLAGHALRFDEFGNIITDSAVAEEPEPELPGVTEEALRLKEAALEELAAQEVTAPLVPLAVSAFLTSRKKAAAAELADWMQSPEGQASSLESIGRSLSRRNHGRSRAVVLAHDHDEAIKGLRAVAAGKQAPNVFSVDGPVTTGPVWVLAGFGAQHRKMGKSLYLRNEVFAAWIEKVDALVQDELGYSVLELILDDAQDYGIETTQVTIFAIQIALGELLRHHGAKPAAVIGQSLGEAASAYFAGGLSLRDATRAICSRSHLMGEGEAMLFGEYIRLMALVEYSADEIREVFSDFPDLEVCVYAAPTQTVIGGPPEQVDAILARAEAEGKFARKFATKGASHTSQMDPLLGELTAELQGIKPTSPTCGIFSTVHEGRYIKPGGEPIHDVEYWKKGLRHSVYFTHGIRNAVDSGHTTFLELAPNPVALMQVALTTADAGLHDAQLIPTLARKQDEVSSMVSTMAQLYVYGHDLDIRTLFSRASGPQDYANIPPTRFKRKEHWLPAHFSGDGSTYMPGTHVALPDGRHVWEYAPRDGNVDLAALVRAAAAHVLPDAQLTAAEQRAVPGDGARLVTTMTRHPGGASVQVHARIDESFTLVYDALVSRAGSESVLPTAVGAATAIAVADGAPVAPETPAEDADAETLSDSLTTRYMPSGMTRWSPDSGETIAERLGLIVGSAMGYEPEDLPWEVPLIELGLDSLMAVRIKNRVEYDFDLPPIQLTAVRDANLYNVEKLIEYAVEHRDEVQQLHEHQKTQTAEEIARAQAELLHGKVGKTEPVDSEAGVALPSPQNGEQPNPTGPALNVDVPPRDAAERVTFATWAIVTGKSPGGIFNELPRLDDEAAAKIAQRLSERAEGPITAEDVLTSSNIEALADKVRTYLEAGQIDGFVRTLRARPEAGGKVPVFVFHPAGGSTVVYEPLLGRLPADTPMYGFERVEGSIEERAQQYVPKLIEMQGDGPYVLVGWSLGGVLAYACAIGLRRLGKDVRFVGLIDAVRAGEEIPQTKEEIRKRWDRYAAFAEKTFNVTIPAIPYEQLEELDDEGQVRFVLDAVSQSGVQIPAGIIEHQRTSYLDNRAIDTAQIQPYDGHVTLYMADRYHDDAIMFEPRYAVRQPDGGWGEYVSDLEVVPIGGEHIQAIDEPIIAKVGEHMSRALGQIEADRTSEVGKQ

Data taken from ChEMBL document CHEMBL3988442, “University of Dundee, Small-Polar-MMV Screening Library” (2021).

Each number is a percent effect as filed.
How 0% and 100% were set is not recorded. Most values in the screen are low, and negative values occur.
The compounds are a random part of those screened.
A dash means the value is not listed here; it may have been measured.

Toxoplasma: 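Assay of Toxoplasma gondii numbers, read through their beta-galactosidase reporter with a colour substrate. Tested at 10 µM. Higher reads as fewer parasites (inferred from which compounds were picked for retests). About 67,000 compounds were tested under these conditions; 0.38% (about 260) showed 50% or more at least once.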
Pks13 thioesterase: 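Polyketide synthase Pks13, Mycobacterium tuberculosis (UniProt I6X8D2). Enzyme assay of the thioesterase domain of polyketide synthase 13; the read-out is not stated. Tested at 30 µM. The record gives no direction; the compounds picked for IC50 retests had high values, so higher reads as stronger inhibition. Of about 67,000 compounds tested this way, about 300 (0.46%) reached 50% or more in at least one test.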

| # | compound | Toxoplasma | Pks13 thioesterase |
|---|---|---|---|
| 1 | `O=C(O)C1(Oc2ccc(Cl)cc2)CCN(C2CCOCC2)CC1` | -4.405% | -4.015% |
| 2 | `CC(C)c1nc(C2CCCN(C(=O)Cn3ccccc3=O)C2)no1` (stereo unspecified) | -5.712% | -8.271% |
| 3 | `Cc1noc2ncnc(NC(CC(C)(C)C)c3cccnc3)c12` (stereo unspecified) | -5.469% | 10.8% |
| 4 | `COCC(C)NC(=O)c1cn(C(C)C)cc2c(=O)[nH]nc1-2` (stereo unspecified) | -20.22% | 24.54% |
| 5 | `c1nc(N2CCCC(Cn3cncn3)C2)c2sccc2n1` (stereo unspecified) | -15.83% | -3.054% |
| 6 | `O=C(NCCc1csc(N2CCCC2)n1)N(C1CCCC1)C1CC1` | -3.744% | -60.2% |
| 7 | `Cc1noc(C)c1CN1CCc2ncc(CN3CCCC3)n2CC1` | - | -8.372% |
| 8 | `CN1CCC(NC(=O)CC2CN(Cc3ccccc3)CCO2)CC1` (stereo unspecified) | 11.66% | - |
| 9 | `Cc1noc(C)c1S(=O)(=O)NCC(C)(O)c1ccc2c(c1)OCO2` (stereo unspecified) | 11.84% | -20.78% |
| 10 | `c1ccc(NC[C@@H]2CCC[C@@H]3CN(c4ncccn4)C[C@@H]32)nc1` | - | -5.363% |
| 11 | `Cc1ccc(S(=O)(=O)NC(=O)CCc2ccco2)cc1N(C)C` | 12.67% | 20.2% |
| 12 | `[H][C@]12CC[C@]([H])(CN(Cc3cscn3)C1)N(C(=O)c1nc(C)c[nH]1)C2` | 3.832% | - |
| 13 | `COC(=O)Cn1ccc(NS(=O)(=O)c2ccc3c(c2)CCC3)n1` | -3.121% | - |

Some entries from above, unchanged:

Result for Cc1noc(C)c1S(=O)(=O)NCC(C)(O)c1ccc2c(c1)OCO2 (stereo unspecified) was Toxoplasma: 11.84%; Pks13 thioesterase: -20.78%.
Result for [H][C@]12CC[C@]([H])(CN(Cc3cscn3)C1)N(C(=O)c1nc(C)c[nH]1)C2 was Toxoplasma: 3.832%.